This test relates to CD2F1 mice, L1210 leukemia ip, survival T/C. The test is described as follows: NCI In Vivo Anticancer Drug Screen. Data for tumor model L1210 Leukemia (intraperitoneal) in CD2F1 (CDF1) mice. Particulars: T/C endpoint: mean survival time, higher T/C = longer survival. The method, boiled down: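 Tumor-bearing mice (transplanted tumor) were split into treated and vehicle control groups, and the measured endpoint of each treated group was divided by that of its vehicle controls.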

[1] abbreviates: dose: 100.0 mg/kg/injection, schedule: Q04DX002 (ip), vehicle: saline with Tween-80.
[2] abbreviates: dose: 200.0 mg/kg/injection, schedule: Q04DX002 (ip), vehicle: saline with Tween-80.
Setting [3] is: dose: 25.0 mg/kg/injection, schedule: Q01DX001 (ip), vehicle: DMSO.
The mark [4] stands for this setting: dose: 50.0 mg/kg/injection, schedule: Q01DX001 (ip), vehicle: DMSO.
[5] abbreviates: dose: 100.0 mg/kg/injection, schedule: Q01DX001 (ip), vehicle: DMSO.
Where [6] appears, read: dose: 200.0 mg/kg/injection, schedule: Q01DX001 (ip), vehicle: DMSO.
[7] abbreviates: dose: 400.0 mg/kg/injection, schedule: Q01DX001 (ip), vehicle: DMSO.

Each structure is given as a SMILES string. The list shows only some results of the screen, not a fair sample: its compounds were picked by chemical class. Other doses and runs of a compound may be missing. T/C is the treated group as % of the vehicle group. Some entries give survivors of the animals treated and no T/C: the source files T/C as zero there, which appears to mark a toxic dose or a test without result, not a measured value. Some doses without a T/C left all or most animals alive at the check, yet need not have been tolerated: the source hardly ever lists a survival T/C far under the control, and the zero likely stands for such cases as well. Counts of survivors are from the toxicity check (mostly the fifth day) where no day follows; animals may have died later. Schedules are NCI's codes, taken here to give the interval after Q, in days (D) or hours (H), and the number of doses after X. Some entries were tested several times; the values are given in rising order. Where survival is the endpoint, this PubChem deposit counts one and a half times the control or more as active, and values a quarter to a half above the control carry no call in these data; other NCI protocols may use other cut-offs. Some T/C values carry the count of animals alive at the toxicity check (mostly the fifth day); without a count or a note in brackets, all were alive then. Some entries show no survivor count and are marked so; the dose need not have been tolerated.

With `O=P1(N(CCCl)CCCl)NC(c2ccccc2)CCO1` (stereo not given), the T/C was 100 and 103 % of control (dose: 15.63 mg/kg/injection, schedule: Q01DX001 (ip), vehicle: distilled water + Tween-80); 100 and 106 % of control (dose: 31.3 mg/kg/injection, schedule: Q01DX001 (ip), vehicle: distilled water + Tween-80); 106 and 109 % of control (dose: 62.5 mg/kg/injection, schedule: Q01DX001 (ip), vehicle: distilled water + Tween-80, evaluated on day 30); 104 % of control (dose: 62.5 mg/kg/injection, schedule: Q01DX001 (ip), vehicle: distilled water + Tween-80, evaluated on day 45); 105 % of control (dose: 62.5 mg/kg/injection, schedule: Q01DX001 (ip), vehicle: water); 94 and 124 % of control (dose: 125.0 mg/kg/injection, schedule: Q01DX001 (ip), vehicle: distilled water + Tween-80, evaluated on day 30). Besides, the T/C by setting is: (dose: 125.0 mg/kg/injection, schedule: Q01DX001 (ip), vehicle: distilled water + Tween-80, evaluated on day 45) 106 % of control; (dose: 125.0 mg/kg/injection, schedule: Q01DX001 (ip), vehicle: water) 120 % of control; (dose: 250.0 mg/kg/injection, schedule: Q01DX001 (ip), vehicle: distilled water + Tween-80, evaluated on day 30) 105 and 149 % of control [5 of 6 alive]; (dose: 250.0 mg/kg/injection, schedule: Q01DX001 (ip), vehicle: distilled water + Tween-80, evaluated on day 45) 120 % of control; (dose: 250.0 mg/kg/injection, schedule: Q01DX001 (ip), vehicle: water) 122 % of control; (dose: 347.0 mg/kg/injection, schedule: Q01DX001 (ip), vehicle: distilled water + Tween-80) 110 % of control. For the same compound, the T/C runs as follows: (dose: 417.0 mg/kg/injection, schedule: Q01DX001 (ip), vehicle: distilled water + Tween-80) 106 % of control; (dose: 500.0 mg/kg/injection, schedule: Q01DX001 (ip), vehicle: distilled water + Tween-80, evaluated on day 30) 108 [5 of 6 alive] and 120 % of control; (dose: 500.0 mg/kg/injection, schedule: Q01DX001 (ip), vehicle: distilled water + Tween-80, evaluated on day 45) 220 % of control [5 of 6 alive]; (dose: 500.0 mg/kg/injection, schedule: Q01DX001 (ip), vehicle: water) 204 % of control [4 of 6 alive]; (dose: 600.0 mg/kg/injection, schedule: Q01DX001 (ip), vehicle: distilled water + Tween-80) 130 % of control [5 of 6 alive]. Moreover, for the setting “dose: 500.0 mg/kg/injection, schedule: Q01DX001 (ip), vehicle: distilled water + Tween-80”, the survivor count is listed as 3 of 6.

As for `CC[P+]1(c2ccccc2)CCC(C)c2ccccc21.F[P-](F)(F)(F)(F)F` (stereo not given), the survivor count reads like this: under setting [1], 0 of 3; under setting [2], 0 of 3; (dose: 400.0 mg/kg/injection, schedule: Q04DX002 (ip), vehicle: saline with Tween-80) 0 of 3.

As to `Cn1cc(N(CCCl)CCCl)c(=O)[nH]c1=O`, the T/C is 146 % of control (dose: 2.73 mg/kg/injection, schedule: Q04DX003 (ip), vehicle: other); 151 % of control (dose: 4.15 mg/kg/injection, schedule: Q04DX003 (ip), vehicle: other); 89 % of control (dose: 6.22 mg/kg/injection, schedule: Q04DX003 (ip), vehicle: other).

On to `O=c1[nH]nc([N+](=O)[O-])[nH]1`, for which the T/C by setting is: (dose: 100.0 mg/kg/injection, schedule: Q04DX003 (ip), vehicle: saline with Tween-80) 94 % of control [survivor count not shown]; (dose: 200.0 mg/kg/injection, schedule: Q04DX003 (ip), vehicle: saline with Tween-80) 101 % of control [survivor count not shown]; (dose: 400.0 mg/kg/injection, schedule: Q04DX003 (ip), vehicle: saline with Tween-80) 100 % of control [survivor count not shown].

For the compound `COc1ccccc1OCC(CN(C)C)OC(=O)C(O)(c1ccccc1)c1ccccc1` (stereo not given), the T/C reads like this: (dose: 100.0 mg/kg/injection, schedule: Q01DX001 (ip), vehicle: saline with Tween-80) 96 % of control; under setting [1], 101 % of control; (dose: 200.0 mg/kg/injection, schedule: Q01DX001 (ip), vehicle: saline with Tween-80) 93 % of control; under setting [2], 93 % of control; (dose: 400.0 mg/kg/injection, schedule: Q01DX001 (ip), vehicle: saline with Tween-80) 91 % of control.

`CN(C)P(=O)(O)N(CCCl)CCCl.NC1CCCCC1`: the T/C runs as follows: under setting [3], 102 % of control; under setting [4], 102 % of control; under setting [5], 97 % of control; (dose: 125.0 mg/kg/injection, schedule: Q01DX001 (ip), vehicle: DMSO) 98 % of control; under setting [6], 105 % of control; (dose: 250.0 mg/kg/injection, schedule: Q01DX001 (ip), vehicle: DMSO) 104 % of control. The T/C runs as follows: under setting [7], 105 % of control; (dose: 500.0 mg/kg/injection, schedule: Q01DX001 (ip), vehicle: DMSO) 107 % of control [5 of 6 alive]; (dose: 600.0 mg/kg/injection, schedule: Q01DX001 (ip), vehicle: DMSO) 105 % of control. The survivor count (dose: 1000.0 mg/kg/injection, schedule: Q01DX001 (ip), vehicle: DMSO) is 0 of 6.

Consider `CC(=O)CCOP(=O)(N(CCCl)CCCl)N1CC1` (stereo not given), for which the T/C is, setting by setting: (dose: 6.25 mg/kg/injection, schedule: Q01DX001 (ip), vehicle: DMSO) 122 % of control; (dose: 12.5 mg/kg/injection, schedule: Q01DX001 (ip), vehicle: DMSO) 132 % of control; (dose: 25.0 mg/kg/injection, schedule: Q01DX001 (ip), vehicle: DMSO, evaluated on day 35) 226 % of control; (dose: 25.0 mg/kg/injection, schedule: Q01DX001 (ip), vehicle: DMSO, evaluated on day 45) 175 % of control; under setting [4], 135 % of control. Besides, the survivor count was 5 of 6 under setting [4]; 0 of 6 and 5 of 6 under setting [5]; 0 of 6 under setting [6]; 0 of 6 under setting [7].

As to `COc1cc(OC)c(Nc2c([N+](=O)[O-])cc([N+](=O)[O-])cc2[N+](=O)[O-])cc1Cl`, the T/C is 105 % of control [5 of 6 alive] (dose: 100.0 mg/kg/injection, schedule: Q04DX003 (ip), vehicle: Klucel (hydroxypropylcellulose) (HPC)); 100 % of control (dose: 200.0 mg/kg/injection, schedule: Q04DX003 (ip), vehicle: Klucel (hydroxypropylcellulose) (HPC)); 96 % of control (dose: 400.0 mg/kg/injection, schedule: Q04DX003 (ip), vehicle: Klucel (hydroxypropylcellulose) (HPC)).

`COC(CCOP(N)(=O)N(CCCl)CCCl)OC` (stereo not given): the T/C runs as follows: under setting [3], 97 % of control; under setting [4], 94 % of control; under setting [5], 103 % of control; under setting [6], 109 % of control; under setting [7], 120 % of control.

For `CCOP(=O)(NC1CCCCC1)OCC`, the T/C by setting is: (dose: 50.0 mg/kg/injection, schedule: Q01DX001 (ip), vehicle: carboxymethylcellulose (CMC)) 100 % of control; (dose: 100.0 mg/kg/injection, schedule: Q01DX001 (ip), vehicle: carboxymethylcellulose (CMC)) 100 % of control; (dose: 200.0 mg/kg/injection, schedule: Q01DX001 (ip), vehicle: carboxymethylcellulose (CMC)) 100 % of control; (dose: 400.0 mg/kg/injection, schedule: Q01DX001 (ip), vehicle: carboxymethylcellulose (CMC)) 100 % of control.

Regarding `COc1ccc2ncccc2c1.O=[N+]([O-])c1cc([N+](=O)[O-])c(O)c([N+](=O)[O-])c1`, the T/C runs as follows: (dose: 100.0 mg/kg/injection, schedule: Q01DX009 (ip), vehicle: saline with Tween-80) 103 % of control [survivor count not shown]; (dose: 200.0 mg/kg/injection, schedule: Q01DX009 (ip), vehicle: saline with Tween-80) 98 % of control [survivor count not shown].
